Results published in the supplement of paper PMC6411743.
± gives the standard deviation of the averaged measurements. Some of the results follow.

The chains behind the UniProt entries cited, without tags or fusion partners. Where a name states a change or a piece, a line headed by the entry shows the natural chain unless it says otherwise.
UniProt O75477: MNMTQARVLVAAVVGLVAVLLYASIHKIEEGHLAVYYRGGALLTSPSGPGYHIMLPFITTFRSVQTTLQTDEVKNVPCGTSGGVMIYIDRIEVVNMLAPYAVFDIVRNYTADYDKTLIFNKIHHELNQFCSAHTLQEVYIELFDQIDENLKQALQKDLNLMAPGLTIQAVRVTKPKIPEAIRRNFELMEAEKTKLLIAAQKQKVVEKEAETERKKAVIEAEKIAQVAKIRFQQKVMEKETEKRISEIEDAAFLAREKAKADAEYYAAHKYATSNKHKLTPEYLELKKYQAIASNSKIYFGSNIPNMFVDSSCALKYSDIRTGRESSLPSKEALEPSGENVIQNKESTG
UniProt O75381, whole entry: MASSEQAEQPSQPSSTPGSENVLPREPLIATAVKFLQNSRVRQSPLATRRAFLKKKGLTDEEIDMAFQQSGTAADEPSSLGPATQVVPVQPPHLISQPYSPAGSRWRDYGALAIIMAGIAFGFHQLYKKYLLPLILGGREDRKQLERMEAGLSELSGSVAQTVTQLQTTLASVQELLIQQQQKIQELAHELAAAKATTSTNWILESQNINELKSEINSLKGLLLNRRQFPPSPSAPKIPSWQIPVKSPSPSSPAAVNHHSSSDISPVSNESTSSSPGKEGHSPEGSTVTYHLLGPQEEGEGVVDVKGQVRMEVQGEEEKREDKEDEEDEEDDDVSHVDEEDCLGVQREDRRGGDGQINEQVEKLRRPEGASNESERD
UniProt P06400: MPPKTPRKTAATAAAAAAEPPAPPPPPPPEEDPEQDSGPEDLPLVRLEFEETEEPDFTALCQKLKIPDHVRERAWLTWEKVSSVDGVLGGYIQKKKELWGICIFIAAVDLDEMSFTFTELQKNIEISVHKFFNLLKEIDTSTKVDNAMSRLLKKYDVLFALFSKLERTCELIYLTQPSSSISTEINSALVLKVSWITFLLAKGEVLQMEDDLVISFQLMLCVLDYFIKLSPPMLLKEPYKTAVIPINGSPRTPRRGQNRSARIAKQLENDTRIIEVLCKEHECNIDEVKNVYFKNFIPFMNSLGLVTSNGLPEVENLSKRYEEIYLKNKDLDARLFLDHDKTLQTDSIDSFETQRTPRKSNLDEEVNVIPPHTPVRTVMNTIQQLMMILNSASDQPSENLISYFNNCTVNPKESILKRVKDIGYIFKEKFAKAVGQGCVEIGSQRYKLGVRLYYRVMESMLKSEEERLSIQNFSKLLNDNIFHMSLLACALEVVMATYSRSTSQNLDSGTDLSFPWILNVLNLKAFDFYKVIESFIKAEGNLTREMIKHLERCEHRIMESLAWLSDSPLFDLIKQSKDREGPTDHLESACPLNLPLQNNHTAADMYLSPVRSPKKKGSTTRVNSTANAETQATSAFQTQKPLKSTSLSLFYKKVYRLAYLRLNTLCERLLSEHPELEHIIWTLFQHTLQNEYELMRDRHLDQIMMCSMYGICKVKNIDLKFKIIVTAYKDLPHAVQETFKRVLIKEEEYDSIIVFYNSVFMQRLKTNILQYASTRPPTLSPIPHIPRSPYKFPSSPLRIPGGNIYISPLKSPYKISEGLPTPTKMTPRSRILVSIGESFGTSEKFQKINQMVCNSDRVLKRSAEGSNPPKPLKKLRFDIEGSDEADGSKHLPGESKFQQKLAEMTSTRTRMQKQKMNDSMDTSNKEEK
UniProt O60911: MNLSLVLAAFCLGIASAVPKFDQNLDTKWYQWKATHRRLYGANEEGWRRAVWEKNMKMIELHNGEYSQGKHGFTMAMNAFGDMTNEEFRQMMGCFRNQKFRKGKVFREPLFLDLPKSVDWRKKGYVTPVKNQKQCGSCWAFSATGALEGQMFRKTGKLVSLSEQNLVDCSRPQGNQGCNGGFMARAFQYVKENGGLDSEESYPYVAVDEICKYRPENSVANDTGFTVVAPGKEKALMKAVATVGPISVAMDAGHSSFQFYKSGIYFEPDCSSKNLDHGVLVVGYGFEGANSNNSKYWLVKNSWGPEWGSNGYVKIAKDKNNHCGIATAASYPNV
UniProt O75688: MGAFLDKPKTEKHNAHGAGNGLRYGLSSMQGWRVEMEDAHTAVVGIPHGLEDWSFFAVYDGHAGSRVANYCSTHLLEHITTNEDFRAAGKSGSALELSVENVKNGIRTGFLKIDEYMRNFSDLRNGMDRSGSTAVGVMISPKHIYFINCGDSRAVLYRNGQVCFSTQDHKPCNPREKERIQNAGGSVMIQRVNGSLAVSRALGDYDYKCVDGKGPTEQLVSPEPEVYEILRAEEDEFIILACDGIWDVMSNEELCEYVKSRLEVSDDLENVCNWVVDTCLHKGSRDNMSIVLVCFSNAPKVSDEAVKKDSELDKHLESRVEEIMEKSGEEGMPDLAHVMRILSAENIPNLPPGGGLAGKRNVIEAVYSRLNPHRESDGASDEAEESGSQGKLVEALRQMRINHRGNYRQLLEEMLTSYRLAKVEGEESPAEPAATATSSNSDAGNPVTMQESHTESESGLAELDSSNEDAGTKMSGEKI
UniProt O95644: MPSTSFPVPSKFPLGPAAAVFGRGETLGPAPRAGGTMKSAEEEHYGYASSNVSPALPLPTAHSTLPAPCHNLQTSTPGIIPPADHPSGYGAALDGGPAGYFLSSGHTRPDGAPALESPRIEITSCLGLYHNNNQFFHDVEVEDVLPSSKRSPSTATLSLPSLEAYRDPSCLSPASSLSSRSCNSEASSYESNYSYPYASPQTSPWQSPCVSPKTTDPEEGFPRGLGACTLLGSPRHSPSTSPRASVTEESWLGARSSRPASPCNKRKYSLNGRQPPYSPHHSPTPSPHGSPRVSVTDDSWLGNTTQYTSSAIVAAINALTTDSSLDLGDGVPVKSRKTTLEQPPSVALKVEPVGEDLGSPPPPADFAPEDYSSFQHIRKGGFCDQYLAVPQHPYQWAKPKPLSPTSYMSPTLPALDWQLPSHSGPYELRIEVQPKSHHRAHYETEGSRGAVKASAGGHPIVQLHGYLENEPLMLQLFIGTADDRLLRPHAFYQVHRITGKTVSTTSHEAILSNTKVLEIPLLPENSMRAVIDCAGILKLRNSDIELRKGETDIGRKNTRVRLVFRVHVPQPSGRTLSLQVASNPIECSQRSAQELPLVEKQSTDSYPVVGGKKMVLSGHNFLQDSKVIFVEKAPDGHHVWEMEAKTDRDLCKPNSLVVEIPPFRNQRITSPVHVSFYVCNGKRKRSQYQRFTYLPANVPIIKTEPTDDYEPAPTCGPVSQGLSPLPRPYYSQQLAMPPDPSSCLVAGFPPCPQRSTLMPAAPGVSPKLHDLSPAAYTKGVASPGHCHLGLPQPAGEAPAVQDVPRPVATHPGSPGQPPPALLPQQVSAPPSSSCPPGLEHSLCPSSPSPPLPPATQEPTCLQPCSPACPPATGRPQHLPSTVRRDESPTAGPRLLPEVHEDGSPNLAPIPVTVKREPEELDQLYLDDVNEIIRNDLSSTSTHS
UniProt O96011: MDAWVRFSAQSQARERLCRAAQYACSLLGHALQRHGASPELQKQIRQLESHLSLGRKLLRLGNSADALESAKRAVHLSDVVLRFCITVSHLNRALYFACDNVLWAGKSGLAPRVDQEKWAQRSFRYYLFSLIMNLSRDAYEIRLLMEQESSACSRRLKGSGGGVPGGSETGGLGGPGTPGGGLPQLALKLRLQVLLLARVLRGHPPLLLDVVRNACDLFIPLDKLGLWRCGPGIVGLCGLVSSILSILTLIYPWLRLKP
UniProt O75935, whole entry: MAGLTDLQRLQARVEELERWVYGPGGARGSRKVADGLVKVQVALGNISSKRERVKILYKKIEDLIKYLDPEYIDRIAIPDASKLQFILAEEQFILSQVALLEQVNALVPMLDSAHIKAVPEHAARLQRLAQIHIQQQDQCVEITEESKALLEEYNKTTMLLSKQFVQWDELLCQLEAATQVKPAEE
UniProt O75177, whole entry: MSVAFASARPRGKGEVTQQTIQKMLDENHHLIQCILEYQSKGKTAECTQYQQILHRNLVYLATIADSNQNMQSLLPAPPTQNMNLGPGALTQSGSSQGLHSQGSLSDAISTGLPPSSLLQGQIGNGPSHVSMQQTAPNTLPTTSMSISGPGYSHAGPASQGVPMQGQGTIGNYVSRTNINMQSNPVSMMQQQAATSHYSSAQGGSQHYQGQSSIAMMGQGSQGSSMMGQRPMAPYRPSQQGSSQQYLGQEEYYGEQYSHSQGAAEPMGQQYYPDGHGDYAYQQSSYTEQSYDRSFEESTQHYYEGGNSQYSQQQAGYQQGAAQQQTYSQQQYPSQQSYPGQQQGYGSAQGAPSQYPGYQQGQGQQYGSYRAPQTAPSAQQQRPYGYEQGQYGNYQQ
UniProt O94888: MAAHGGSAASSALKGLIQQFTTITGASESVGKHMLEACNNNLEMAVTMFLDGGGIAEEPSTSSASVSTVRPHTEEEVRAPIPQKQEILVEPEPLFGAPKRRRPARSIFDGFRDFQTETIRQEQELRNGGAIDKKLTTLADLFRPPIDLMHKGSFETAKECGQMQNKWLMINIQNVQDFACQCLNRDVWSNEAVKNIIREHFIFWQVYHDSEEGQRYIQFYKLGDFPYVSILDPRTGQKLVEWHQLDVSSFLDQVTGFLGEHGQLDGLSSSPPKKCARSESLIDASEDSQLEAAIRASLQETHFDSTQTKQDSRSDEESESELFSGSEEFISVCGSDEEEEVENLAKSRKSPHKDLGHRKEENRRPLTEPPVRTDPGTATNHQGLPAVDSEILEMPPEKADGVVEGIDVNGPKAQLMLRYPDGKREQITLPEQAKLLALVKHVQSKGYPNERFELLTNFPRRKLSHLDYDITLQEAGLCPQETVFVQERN
UniProt O94913, whole entry: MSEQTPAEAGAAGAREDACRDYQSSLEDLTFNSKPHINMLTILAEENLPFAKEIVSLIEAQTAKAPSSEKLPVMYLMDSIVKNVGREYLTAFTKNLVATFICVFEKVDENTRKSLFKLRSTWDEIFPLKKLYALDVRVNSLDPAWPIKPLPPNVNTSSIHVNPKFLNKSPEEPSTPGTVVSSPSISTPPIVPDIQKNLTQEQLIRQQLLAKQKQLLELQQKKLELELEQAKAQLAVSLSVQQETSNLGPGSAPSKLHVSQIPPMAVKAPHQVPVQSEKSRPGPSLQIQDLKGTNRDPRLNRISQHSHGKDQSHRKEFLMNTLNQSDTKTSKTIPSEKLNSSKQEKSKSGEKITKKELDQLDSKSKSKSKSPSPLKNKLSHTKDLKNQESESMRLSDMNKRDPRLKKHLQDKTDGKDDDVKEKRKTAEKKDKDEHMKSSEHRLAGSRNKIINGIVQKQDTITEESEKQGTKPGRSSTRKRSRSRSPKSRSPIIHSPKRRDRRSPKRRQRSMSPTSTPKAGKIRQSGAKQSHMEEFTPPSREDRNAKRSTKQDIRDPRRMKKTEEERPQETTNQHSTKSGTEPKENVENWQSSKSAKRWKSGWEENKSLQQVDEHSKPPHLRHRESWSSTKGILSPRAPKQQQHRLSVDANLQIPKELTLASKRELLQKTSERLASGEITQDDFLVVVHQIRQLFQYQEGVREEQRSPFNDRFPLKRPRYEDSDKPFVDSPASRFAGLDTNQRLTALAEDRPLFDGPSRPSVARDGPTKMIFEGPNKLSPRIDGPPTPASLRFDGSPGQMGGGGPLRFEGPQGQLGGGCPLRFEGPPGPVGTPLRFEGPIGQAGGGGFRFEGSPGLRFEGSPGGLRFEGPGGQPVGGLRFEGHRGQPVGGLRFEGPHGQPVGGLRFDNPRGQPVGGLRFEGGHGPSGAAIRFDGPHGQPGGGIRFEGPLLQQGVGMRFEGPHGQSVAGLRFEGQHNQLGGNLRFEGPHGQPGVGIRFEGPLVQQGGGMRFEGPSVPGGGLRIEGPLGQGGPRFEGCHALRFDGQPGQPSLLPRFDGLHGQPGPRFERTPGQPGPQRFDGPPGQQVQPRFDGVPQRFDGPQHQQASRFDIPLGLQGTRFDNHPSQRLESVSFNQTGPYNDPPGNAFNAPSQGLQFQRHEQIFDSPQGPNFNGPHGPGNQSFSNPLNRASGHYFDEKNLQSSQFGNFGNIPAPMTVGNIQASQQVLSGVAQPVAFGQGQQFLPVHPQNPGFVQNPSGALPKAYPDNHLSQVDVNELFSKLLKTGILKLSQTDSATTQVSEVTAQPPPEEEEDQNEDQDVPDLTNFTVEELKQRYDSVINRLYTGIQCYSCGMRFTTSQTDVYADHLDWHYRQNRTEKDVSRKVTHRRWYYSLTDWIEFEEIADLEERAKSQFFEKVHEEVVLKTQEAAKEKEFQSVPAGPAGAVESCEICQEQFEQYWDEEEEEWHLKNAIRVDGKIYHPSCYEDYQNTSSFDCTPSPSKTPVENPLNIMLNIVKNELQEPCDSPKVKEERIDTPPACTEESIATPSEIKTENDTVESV
UniProt O95749: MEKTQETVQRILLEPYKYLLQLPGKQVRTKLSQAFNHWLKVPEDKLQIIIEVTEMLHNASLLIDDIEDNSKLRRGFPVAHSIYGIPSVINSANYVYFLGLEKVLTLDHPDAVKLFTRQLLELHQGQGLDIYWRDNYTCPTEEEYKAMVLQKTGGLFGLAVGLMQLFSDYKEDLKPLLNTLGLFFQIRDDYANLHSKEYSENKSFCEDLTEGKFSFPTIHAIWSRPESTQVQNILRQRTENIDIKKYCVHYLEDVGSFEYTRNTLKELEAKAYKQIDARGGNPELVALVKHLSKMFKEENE

Compound: Nc1nc2c(ncn2[C@@H]2O[C@H](COP(=O)(O)OP(=O)(O)OP(=O)(O)O)[C@@H](O)[C@H]2O)c(=O)[nH]1 [guanosine triphosphate]
Assay: NP40-soluble protein abundance relative to vehicle (solubility fold change) (ratio); higher = more soluble protein in presence of GTP
How it was run: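 Jurkat crude lysate prepared with a Dounce homogeniser was treated at eight concentrations spanning 0.1 to 10 mM, 10 min at room temperature then 3 min at 37 °C. Solubilisation with 0.8% NP40 and benzonase and ultracentrifugation preceded TMT labelling of the supernatant for LC-MS/MS. Fold change against the detergent-processed vehicle was determined per replicate from vsn-normalised intensities, across three independent experiments.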

ERLIN1 (UniProt O75477)
NP40-soluble protein abundance (concentration: 0.1mM): 1.03 ± 0.064
NP40-soluble protein abundance (concentration: 0.5mM): 1.07 ± 0.084
NP40-soluble protein abundance (concentration: 1mM): 1.12 ± 0.14
NP40-soluble protein abundance (concentration: 2mM): 1.13 ± 0.12
NP40-soluble protein abundance (concentration: 4mM): 1.22 ± 0.19
NP40-soluble protein abundance (concentration: 6mM): 1.2 ± 0.18
NP40-soluble protein abundance (concentration: 8mM): 1.26 ± 0.29
NP40-soluble protein abundance (concentration: 10mM): 1.15 ± 0.22

UniProt O75381 and related entries
NP40-soluble protein abundance (concentration: 0.1mM): 0.943 ± 0.066
NP40-soluble protein abundance (concentration: 0.5mM): 0.844 ± 0.058
NP40-soluble protein abundance (concentration: 1mM): 1.1 ± 0.042
NP40-soluble protein abundance (concentration: 2mM): 1.07 ± 0.027
NP40-soluble protein abundance (concentration: 4mM): 1.06 ± 0.029
NP40-soluble protein abundance (concentration: 6mM): 1.04 ± 0.025
NP40-soluble protein abundance (concentration: 8mM): 0.901 ± 0.086
NP40-soluble protein abundance (concentration: 10mM): 1.15 ± 0.088

RB1 (UniProt P06400)
NP40-soluble protein abundance (concentration: 0.1mM): 0.964 ± 0.053
NP40-soluble protein abundance (concentration: 0.5mM): 0.933 ± 0.059
NP40-soluble protein abundance (concentration: 1mM): 0.924 ± 0.053
NP40-soluble protein abundance (concentration: 2mM): 0.889 ± 0.05
NP40-soluble protein abundance (concentration: 4mM): 0.915 ± 0.063
NP40-soluble protein abundance (concentration: 6mM): 0.871 ± 0.059
NP40-soluble protein abundance (concentration: 8mM): 0.9 ± 0.09
NP40-soluble protein abundance (concentration: 10mM): 0.869 ± 0.059

CTSV (UniProt O60911)
NP40-soluble protein abundance (concentration: 0.1mM): 0.983 ± 0.018
NP40-soluble protein abundance (concentration: 0.5mM): 0.935 ± 0.056
NP40-soluble protein abundance (concentration: 1mM): 0.997 ± 0.05
NP40-soluble protein abundance (concentration: 2mM): 0.992 ± 0.067
NP40-soluble protein abundance (concentration: 4mM): 0.953 ± 0.0099
NP40-soluble protein abundance (concentration: 6mM): 1.01 ± 0.052
NP40-soluble protein abundance (concentration: 8mM): 0.987 ± 0.047
NP40-soluble protein abundance (concentration: 10mM): 1.02 ± 0.045

PPM1B (UniProt O75688)
NP40-soluble protein abundance (concentration: 0.1mM): 0.9514 ± 0.0053
NP40-soluble protein abundance (concentration: 0.5mM): 0.95 ± 0.041
NP40-soluble protein abundance (concentration: 1mM): 0.91 ± 0.045
NP40-soluble protein abundance (concentration: 2mM): 0.9 ± 0.055
NP40-soluble protein abundance (concentration: 4mM): 0.856 ± 0.064
NP40-soluble protein abundance (concentration: 6mM): 0.876 ± 0.081
NP40-soluble protein abundance (concentration: 8mM): 0.868 ± 0.053
NP40-soluble protein abundance (concentration: 10mM): 0.889 ± 0.056

UniProt O75179 and related entries
NP40-soluble protein abundance (concentration: 0.1mM): 1.01 ± 0.025
NP40-soluble protein abundance (concentration: 0.5mM): 1.04 ± 0.025
NP40-soluble protein abundance (concentration: 1mM): 1.05 ± 0.038
NP40-soluble protein abundance (concentration: 2mM): 1.03 ± 0.088
NP40-soluble protein abundance (concentration: 4mM): 1.03 ± 0.086
NP40-soluble protein abundance (concentration: 6mM): 1.07 ± 0.072
NP40-soluble protein abundance (concentration: 8mM): 1.09 ± 0.084
NP40-soluble protein abundance (concentration: 10mM): 1.05 ± 0.11

UniProt O95644 and related entries
NP40-soluble protein abundance (concentration: 0.1mM): 1.01 ± 0.2
NP40-soluble protein abundance (concentration: 0.5mM): 1.07 ± 0.094
NP40-soluble protein abundance (concentration: 1mM): 1.25 ± 0.18
NP40-soluble protein abundance (concentration: 2mM): 1.37 ± 0.17
NP40-soluble protein abundance (concentration: 4mM): 1.31 ± 0.29
NP40-soluble protein abundance (concentration: 6mM): 1.34 ± 0.19
NP40-soluble protein abundance (concentration: 8mM): 1.17 ± 0.053
NP40-soluble protein abundance (concentration: 10mM): 1.34 ± 0.3

UniProt O96011 and related entries
NP40-soluble protein abundance (concentration: 0.1mM): 1.01 ± 0.048
NP40-soluble protein abundance (concentration: 0.5mM): 0.968 ± 0.035
NP40-soluble protein abundance (concentration: 1mM): 0.9282 ± 0.0073
NP40-soluble protein abundance (concentration: 2mM): 0.927 ± 0.065
NP40-soluble protein abundance (concentration: 4mM): 0.978 ± 0.027
NP40-soluble protein abundance (concentration: 6mM): 0.945 ± 0.013
NP40-soluble protein abundance (concentration: 8mM): 0.942 ± 0.07
NP40-soluble protein abundance (concentration: 10mM): 0.914 ± 0.055

UniProt O75935 and related entries
NP40-soluble protein abundance (concentration: 0.1mM): 0.987 ± 0.23
NP40-soluble protein abundance (concentration: 0.5mM): 0.965 ± 0.24
NP40-soluble protein abundance (concentration: 1mM): 1.2 ± 0.39
NP40-soluble protein abundance (concentration: 2mM): 1.28 ± 0.38
NP40-soluble protein abundance (concentration: 4mM): 1.23 ± 0.36
NP40-soluble protein abundance (concentration: 6mM): 1.23 ± 0.31
NP40-soluble protein abundance (concentration: 8mM): 1.14 ± 0.36
NP40-soluble protein abundance (concentration: 10mM): 1.33 ± 0.56

SS18L1 (UniProt O75177)
NP40-soluble protein abundance (concentration: 0.1mM): 0.937 ± 0.036
NP40-soluble protein abundance (concentration: 0.5mM): 1.03 ± 0.064
NP40-soluble protein abundance (concentration: 1mM): 1.11 ± 0.061
NP40-soluble protein abundance (concentration: 2mM): 1.13 ± 0.11
NP40-soluble protein abundance (concentration: 4mM): 1.2 ± 0.15
NP40-soluble protein abundance (concentration: 6mM): 1.19 ± 0.17
NP40-soluble protein abundance (concentration: 8mM): 1.22 ± 0.17
NP40-soluble protein abundance (concentration: 10mM): 1.22 ± 0.25

TMCC1 (UniProt O94876)
NP40-soluble protein abundance (concentration: 0.1mM): 1.08 ± 0.016
NP40-soluble protein abundance (concentration: 0.5mM): 1 ± 0.065
NP40-soluble protein abundance (concentration: 1mM): 0.955 ± 0.037
NP40-soluble protein abundance (concentration: 2mM): 0.893 ± 0.033
NP40-soluble protein abundance (concentration: 4mM): 0.981 ± 0.037
NP40-soluble protein abundance (concentration: 6mM): 0.901 ± 0.042
NP40-soluble protein abundance (concentration: 8mM): 0.96 ± 0.058
NP40-soluble protein abundance (concentration: 10mM): 0.876 ± 0.068

UBXN7 (UniProt O94888)
NP40-soluble protein abundance (concentration: 0.1mM): 0.964 ± 0.086
NP40-soluble protein abundance (concentration: 0.5mM): 0.958 ± 0.053
NP40-soluble protein abundance (concentration: 1mM): 0.946 ± 0.12
NP40-soluble protein abundance (concentration: 2mM): 0.926 ± 0.098
NP40-soluble protein abundance (concentration: 4mM): 0.91 ± 0.11
NP40-soluble protein abundance (concentration: 6mM): 0.94 ± 0.11
NP40-soluble protein abundance (concentration: 8mM): 0.917 ± 0.1
NP40-soluble protein abundance (concentration: 10mM): 0.946 ± 0.077

UniProt O94913 and related entries
NP40-soluble protein abundance (concentration: 0.1mM): 0.991 ± 0.054
NP40-soluble protein abundance (concentration: 0.5mM): 1.01 ± 0.049
NP40-soluble protein abundance (concentration: 1mM): 1.04 ± 0.055
NP40-soluble protein abundance (concentration: 2mM): 1.01 ± 0.078
NP40-soluble protein abundance (concentration: 4mM): 1.06 ± 0.061
NP40-soluble protein abundance (concentration: 6mM): 1.06 ± 0.059
NP40-soluble protein abundance (concentration: 8mM): 1.12 ± 0.064
NP40-soluble protein abundance (concentration: 10mM): 1.11 ± 0.065

UniProt P01116-2
NP40-soluble protein abundance (concentration: 0.1mM): 0.974 ± 0.17
NP40-soluble protein abundance (concentration: 0.5mM): 0.869 ± 0.12
NP40-soluble protein abundance (concentration: 1mM): 0.866 ± 0.17
NP40-soluble protein abundance (concentration: 2mM): 0.875 ± 0.13
NP40-soluble protein abundance (concentration: 4mM): 0.908 ± 0.14
NP40-soluble protein abundance (concentration: 6mM): 0.815 ± 0.097
NP40-soluble protein abundance (concentration: 8mM): 0.825 ± 0.12
NP40-soluble protein abundance (concentration: 10mM): 0.861 ± 0.14

UniProt O95749 and related entries
NP40-soluble protein abundance (concentration: 0.1mM): 0.947 ± 0.085
NP40-soluble protein abundance (concentration: 0.5mM): 0.968 ± 0.045
NP40-soluble protein abundance (concentration: 1mM): 0.953 ± 0.078
NP40-soluble protein abundance (concentration: 2mM): 0.929 ± 0.093
NP40-soluble protein abundance (concentration: 4mM): 0.914 ± 0.1
NP40-soluble protein abundance (concentration: 6mM): 0.906 ± 0.067
NP40-soluble protein abundance (concentration: 8mM): 0.904 ± 0.032
NP40-soluble protein abundance (concentration: 10mM): 0.946 ± 0.069
